Our source for the AC50 values is PubChem BioAssay AID493014 (National Center for Advancing Translational Sciences (NCATS), 2011).

Some of the results follow. The main result of the screen is listed elsewhere. These columns were measured beside it and carry no call. The list favours compounds with an active or inconclusive main result. Words in brackets tell the shape of the fitted curve; partial curves, single points and poor fits give uncertain potencies.

The assay in a line: qHTS Assay to Find Inhibitors of Chronic Active B-Cell Receptor Signaling. The settings on record: ABC-DLBCL IkBa-CBG/CBR reporter, luminescence ratio (green luciferase fused to IkBa over red control in TMD8 lymphoma cells), 4 h. A digest of the protocol: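 Doxycycline induced both beetle luciferases in TMD8 lymphoma cells; IKK-driven degradation limits the IkappaBalpha-fused green signal, while red luminescence normalises for cell number and nonspecific effects. Compounds tested up to 46 uM, 4 hrs.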

The mark [1] stands for this setting: measured here: CBR red luminescence, cell number.
[2] abbreviates: measured here: IkBa-CBG green luminescence.

Turning to `CCOC(=O)N1CCC(NC(=O)CS(=O)(=O)Cc2nc(-c3cccc(Cl)c3)oc2C)CC1`, the AC50 under setting [1] is 35.5 µM [rising, single point].

In the case of `CC1(C)Oc2ccc(C(=O)N3CCOCC3)cc2N(CC(=O)Nc2ccccc2)C1=O`, under setting [1], the half-maximal activity concentration (AC50) is 0.103 µM [rising, full curve, poor fit].

Regarding `O=C(Cn1nnc(-c2cccs2)n1)NCc1ccco1`, the AC50 under setting [1] was 0.562 µM [rising, full curve, poor fit].

Take `CC1CCCCN1C(=O)CSc1nc(C2CC2)nc2ccccc12` (stereo not drawn): under setting [1], the concentration at half-maximal activity (AC50) is 6.31 µM [falling, partial curve, poor fit].

For the compound `CCOC(=O)c1[nH]c2ccccc2c1NC(=S)Nc1ccccc1`, the AC50 under setting [1] is 29.1 µM [falling, single point].

As to `CC(C)(C)c1ccc(C(=O)Nc2cccc([N+](=O)[O-])c2)cc1`, the AC50 under setting [1] is 29.1 µM [falling, single point].

For the compound `O=C(Nc1ccccc1C(=O)Nc1ccc(Br)cn1)c1cccc([N+](=O)[O-])c1`, the AC50 under setting [1] is 11.2 µM [falling, partial curve].

Consider `COc1ccc(-c2oc(NC(=O)CCl)c(C#N)c2-c2ccc(OC)cc2)cc1`, for which the half-maximal activity concentration (AC50) under setting [1] was 29.1 µM [falling, single point].

Turning to `NC(=O)c1ccccc1OCC(=O)Nc1ccc(Cl)c(Cl)c1`, under setting [1], the concentration at half-maximal activity (AC50) was 14.1 µM [falling, single point].

For the compound `CC(O)c1nc2c(c(=O)n(C)c(=O)n2C)n1C` (stereo not drawn), the AC50 under setting [1] was 12.6 µM [falling, single point].

For the compound `Cc1cc(C(=O)Nc2cccc(O)c2)co1`, under setting [1], the AC50 was 16.4 µM [falling, partial curve, poor fit].

For the compound `CN(c1cccc2cccnc12)S(=O)(=O)c1ccccc1`, the half-maximal activity concentration (AC50) under setting [1] is 35.5 µM [falling, single point].

Turning to `CCCCC(NC(C)=O)c1nc2ccccc2n1CCC` (stereo not drawn), under setting [1], the AC50 was 3.26 µM [falling, partial curve, poor fit].

In the case of `C(=N\n1cnc2ccccc21)/c1cccnc1`, under setting [1], the AC50 was 0.00517 µM [rising, full curve, poor fit].

In the case of `O=C(NNS(=O)(=O)c1ccc(F)cc1)c1ccc2c(c1)OCO2`, the half-maximal activity concentration (AC50) under setting [1] is 11.2 µM [falling, single point].

On to `COC(=O)C(Cc1ccc(O)cc1)NC(=O)CCNC(=O)c1ccco1` (stereo not drawn), for which the AC50 under setting [1] was 2.82 µM [falling, partial curve, poor fit].

Turning to `COc1ccc(Cl)c(NC(=O)Cn2nnc(-c3ccccc3N)n2)c1`, under setting [1], the AC50 is 10 µM [falling, partial curve, poor fit].

With `COc1ccc(C(=O)Nc2ccccc2C(=O)Nc2ccncc2)cc1`, the AC50 under setting [1] was 14.1 µM [falling, partial curve].

Take `Cc1ccccc1CNC(=O)Cn1ccc2cc(S(=O)(=O)N3CCCCCC3)ccc21`: under setting [1], the half-maximal activity concentration (AC50) is 25.1 µM [falling, single point].

In the case of `O=C(c1ccc2c(c1)OCO2)N(CC1CCCO1)C1(C(=O)NC2CCCCC2)CCCCC1` (stereo not drawn), the concentration at half-maximal activity (AC50) was 29.1 µM [falling, single point] under setting [1] and 25.9 µM [rising, partial curve, poor fit] under setting [2].

`CCCCCCCOc1ccc(C2(C)NC(=O)NC2=O)cc1` (stereo not drawn): the concentration at half-maximal activity (AC50) under setting [1] is 35.5 µM [rising, single point].

With `O=C(Cc1ccc(Cl)cc1)NCC(c1cccs1)S(=O)(=O)c1ccc(F)cc1` (stereo not drawn), the half-maximal activity concentration (AC50) under setting [1] was 12.6 µM [falling, single point].

For `COc1ccc(OC)c(C(=O)CN2CCN(S(=O)(=O)c3ccc(Br)cc3)CC2)c1`, the concentration at half-maximal activity (AC50) under setting [1] is 18.4 µM [rising, partial curve] and the AC50 under setting [2] is 20.6 µM [falling, single point].

For the compound `Cc1cc(C)nc(Nc2n[nH]c(-c3ccccc3Br)n2)n1`, the AC50 under setting [1] was 0.366 µM [falling, full curve, poor fit].

Take `COC(=O)c1ccc(N2CCCCC2)c(N)c1`: under setting [1], the AC50 was 10 µM [falling, partial curve, poor fit].

Consider `CC(C)c1ccc(NC(=O)N2CCc3ccccc3C2)cc1`, for which the AC50 under setting [1] was 1.41 µM [rising, partial curve].

Regarding `Cc1cc(C)n(CCc2nc(-c3ccc(C)o3)cs2)n1`, under setting [1], the concentration at half-maximal activity (AC50) is 29.1 µM [falling, partial curve, poor fit].

For `O=c1[nH]c(CSc2nc3ccccc3o2)nc2c1cnn2-c1ccccc1`, the half-maximal activity concentration (AC50) under setting [1] is 3.55 µM [rising, partial curve, poor fit].

On to `CNS(=O)(=O)c1ccc2nc(NC(=O)/C=C/c3ccco3)sc2c1`, for which the AC50 under setting [1] is 0.708 µM [rising, full curve, poor fit].

`COC(=O)c1cc(C)ccc1OCc1ccc([N+](=O)[O-])cc1`: the AC50 under setting [1] is 35.5 µM [rising, partial curve, poor fit].

For the compound `Cc1nc(CC(=O)Nc2nc(C(C)(C)C)cs2)cs1`, under setting [1], the AC50 is 35.5 µM [falling, single point].

With `C#CCOCCOCCOCCNc1nc(N2CCN(C(=O)[C@H](C(C)C)n3cc(CCO)nn3)CC2)nc(N2CCN(C(=O)[C@H]([C@@H](C)CC)n3cc(CCCN=C(N)N)nn3)CC2)n1`, the concentration at half-maximal activity (AC50) was 0.231 µM [rising, full curve, poor fit] under setting [1] and 16.4 µM [falling, partial curve] under setting [2].

Take `Cc1ccc(S(=O)(=O)NN2C(=O)/C(=C/c3cccc(F)c3)SC2=S)cc1`: the AC50 under setting [1] was 20 µM [falling, partial curve, poor fit].

On to `O=C(Cc1ccc(F)cc1)Nc1ccc(S(=O)(=O)N2CCCCC2)cc1`, for which, under setting [1], the AC50 was 10 µM [rising, partial curve, poor fit].

As for `CC(=O)Nc1c(C)nn(-c2ccc([N+](=O)[O-])cc2)c1C`, the AC50 under setting [1] was 12.6 µM [rising, partial curve].

On to `CC(=O)c1ccc(NC(=O)C(C)OC(=O)c2ccc(NS(=O)(=O)c3ccc(F)c(F)c3)cc2)cc1` (stereo not drawn), for which, under setting [1], the concentration at half-maximal activity (AC50) was 25.9 µM [falling, single point].

For the compound `O=S(=O)(Nc1ccc(F)cc1Cl)c1ccc(-c2cnc(C3CC3)o2)cc1`, the concentration at half-maximal activity (AC50) was 17.8 µM [rising, single point] under setting [1] and 15.8 µM [falling, single point] under setting [2].

For the compound `COc1ccc(-n2nc([N+](=O)[O-])c(=NCCCN3CCCC3=O)n2O)cc1`, the AC50 under setting [1] was 35.5 µM [rising, single point].

On to `COc1ccc(-n2cccc2C=O)cc1`, for which, under setting [1], the AC50 is 23.1 µM [rising, partial curve].
